This is an account of results in US12053451B2, “Arginase inhibitors and their therapeutic applications” (OncoArendi Therapeutics S.A., priority 2016, dated 2024).

By UniProt entry, the sequences of proteins in these tests, tags left out. Residues count along the entry.
UniProt P05089, whole entry: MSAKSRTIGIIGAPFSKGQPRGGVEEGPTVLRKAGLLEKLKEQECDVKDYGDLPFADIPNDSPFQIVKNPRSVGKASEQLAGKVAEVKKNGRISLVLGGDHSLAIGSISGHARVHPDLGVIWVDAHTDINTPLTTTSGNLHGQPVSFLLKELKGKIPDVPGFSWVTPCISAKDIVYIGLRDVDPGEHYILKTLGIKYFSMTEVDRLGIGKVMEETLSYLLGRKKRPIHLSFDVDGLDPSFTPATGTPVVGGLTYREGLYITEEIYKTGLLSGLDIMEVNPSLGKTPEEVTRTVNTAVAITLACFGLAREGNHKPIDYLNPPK
UniProt P78540, 23-354 limits assumed: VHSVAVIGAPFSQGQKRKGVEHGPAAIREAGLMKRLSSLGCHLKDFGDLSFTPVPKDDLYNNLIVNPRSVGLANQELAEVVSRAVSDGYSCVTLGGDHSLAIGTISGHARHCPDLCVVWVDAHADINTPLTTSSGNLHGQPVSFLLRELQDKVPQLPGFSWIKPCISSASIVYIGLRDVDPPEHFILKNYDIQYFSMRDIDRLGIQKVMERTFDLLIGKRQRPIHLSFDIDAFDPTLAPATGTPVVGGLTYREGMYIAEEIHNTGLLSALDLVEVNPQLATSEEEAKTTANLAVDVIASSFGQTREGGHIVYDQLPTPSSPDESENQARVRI

Assay [1] deals with recombinant human arginase 1 (Homo sapiens, UniProt P05089). Description: Human arginase activity assay (urea measurement), arginase 1. Format: biochemical. Conditions: read-out: Activity Class (ARG I); recombinant human arginase 1, pH 7.4, 37° C., 60 min; * = value for the most potent diastereoisomer or the mixture of diastereoisomers; tested form: HCl.
Assay [2] deals with recombinant human arginase 2 (Homo sapiens, UniProt P78540). Nature of the assay: Human arginase activity assay (urea measurement), arginase 2. Conditions: read-out: Activity Class (ARG II), for selected examples class estimated from % of inhibition at 1 μM and 100 μM, * = most potent diastereoisomer or mixture of diastereoisomers, tested form: HCl.

SMILES strings stand for the structures. Structures were worked out from names or drawings and are uncertain.

Take `NC1(C(=O)O)CC(CCB(O)O)CC1O` (centres unmarked): the results for the IC50 in assay [1] and in assay [2] were 1 to 10 µM and 10 to 100 µM, respectively.
